The values that follow come from PubChem BioAssay AID248 (DTP/NCI, 2004).

The subject of the test is L1210 leukemia ip in BDF1 mice, survival T/C. The experiment in a line: NCI In Vivo Anticancer Drug Screen. Data for tumor model L1210 Leukemia (intraperitoneal) in B6D2F1 (BDF1) mice. To be noted: T/C endpoint: mean survival time, higher T/C = longer survival; for T/C: vehicle: other.

The list does not hold the whole screen: it gathers tests that were run many times, whatever their T/C, doses with no T/C, and many T/C values between a quarter and a half above the control. Further doses and runs are listed elsewhere. T/C: endpoint of the treated group in % of that of the vehicle group. Some entries give survivors of the animals treated and no T/C: the source holds a T/C of zero for them, seemingly a mark for toxic or unscored doses. Some doses without a T/C left all or most animals alive at the check, yet need not have been tolerated: survival well below the control is almost never listed, so the zero probably covers shortened survival too. Counts of survivors are from the toxicity check (mostly the fifth day) where no day follows; animals may have died later. Schedule codes are those of the source, read here as Q, the interval in days (D) or hours (H), X, the number of doses. Where survival is the endpoint, this PubChem deposit counts one and a half times the control or more as active, and values a quarter to a half above the control carry no call in these data; other NCI protocols may use other cut-offs.

Turning to `Cc1ccc2c3csc4ccccc4c-3nc2c1`, the survivor count runs as follows: (dose: 25.0 mg/kg/injection, schedule: Q01DX009 (ip), vehicle: saline) 0 of 6; (dose: 50.0 mg/kg/injection, schedule: Q04DX003 (ip), vehicle: saline) 5 of 6.

For `CCN(CC)CC(O)CNc1ccnc2cc(Cl)ccc12` (centres undefined), the survivor count is given as 3 of 6 (dose: 100.0 mg/kg/injection, schedule: Q01DX009 (ip), vehicle: saline with Tween-80); 0 of 6 (dose: 200.0 mg/kg/injection, schedule: Q01DX009 (ip), vehicle: saline with Tween-80); 0 of 6 (dose: 400.0 mg/kg/injection, schedule: Q01DX009 (ip), vehicle: saline with Tween-80). Consider `CCC(C)(C)c1ccc(OCCCCCCN2CCN(c3ccc(C)c(Cl)c3)CC2)cc1`, for which the survivor count (dose: 300.0 mg/kg/injection, schedule: Q01DX001 (ip), vehicle: saline) is listed as 2 of 6. Take `C=CCNc1ncnc2c1ncn2C1OC(CO)C(O)C1O` (centres undefined): the T/C was 126 % of control (dose: 50.0 mg/kg/injection, schedule: Q01DX009 (ip)) and 128 % of control (dose: 75.0 mg/kg/injection, schedule: Q01DX009 (ip)).

For `O=C(CI)Nc1ccc(NC(=O)CI)cc1`, the survivor count (dose: 400.0 mg/kg/injection, schedule: Q04DX003 (ip), vehicle: Klucel (hydroxypropylcellulose) (HPC)) is 0 of 6.
